{
  "source": "paper PMC8591804",
  "binders": {"B1": {"name": "DTYMK in 293 T cells (co-immunoprecipitation with STOML2) (protein, UniProt P23919 1-212)", "chain": "MAARRGALIVLEGVDRAGKSTQSRKLVEALCAAGHRAELLRFPERSTEIGKLLSSYLQKKSDVEDHSVHLLFSANRWEQVPLIKEKLSQGVTLVVDRYAFSGVAFTGAKENFSLDWCKQPDVGLPKPDLVLFLQLQLADAAKRGAFGHERYENGAFQERALRCFHQLMKDTTLNWKMVDASKSIEAVHEDIRVLSEDAIRTATEKPLGELWK"}},
  "biological_target": "T1, STOML2 in 293 T cells (co-immunoprecipitation with DTYMK) (human) (UniProt Q9UJZ1)",
  "T1 sequence": "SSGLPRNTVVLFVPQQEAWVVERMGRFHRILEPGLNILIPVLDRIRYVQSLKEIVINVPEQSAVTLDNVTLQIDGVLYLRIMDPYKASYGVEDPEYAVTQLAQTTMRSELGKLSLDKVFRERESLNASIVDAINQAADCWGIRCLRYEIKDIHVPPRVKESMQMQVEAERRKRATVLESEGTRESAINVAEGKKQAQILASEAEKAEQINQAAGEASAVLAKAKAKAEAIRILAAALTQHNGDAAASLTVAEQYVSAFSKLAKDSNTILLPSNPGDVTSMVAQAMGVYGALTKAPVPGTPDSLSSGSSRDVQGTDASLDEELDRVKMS",
  "assay": "co-IP; lysate of 293 T cells; protein-A Sepharose beads with anti-His, anti-PHB or anti-SLP2 antibody as indicated, 4 °C overnight, anti-IgG as control; western blotting",
  "note": "No constants are given. Whether binding was seen depends on the method and setting. Binding seen in cells or lysates may run through a third protein.",
  "data": [
    {"binder": "B1", "values": [
      {"measurement": "binding", "result": "no binding"}
    ]}
  ]
}
